Measured values: patent publication EP0989136A1, “PEPTIDES HAVING CYCLIC STRUCTURES AND EXERTING P53 PROTEIN ACTIVTY-RESTORING EFFECT ON P53 PROTEIN MUTANTS” (KYOWA HAKKO KOGYO CO., LTD., priority 1997, dated 1998)
At least one peptide structure holds a part that was inferred or is arguable (an end, a ring closure or a residue). Positions of bridges follow the written chain, without caps; N, C: chain ends. Non-standard residues stand in square brackets, D forms with d. Residues, ends and D or L forms follow the SMILES beside them. *: point of attachment. 12Ado = NCCCCCCCCCCCC(=O)O; NHBu = CCCCN*

Tested on: P53-dependent transcription
Test: Luciferase reporter assay (p53RE8luc2) of activation of P53-dependent transcription in A431 cells
Assay type: cell-based, Human
Conditions: final concentration of test compound 25 µM, introduced with DOSPER liposome reagent, luciferase activity normalized with protein concentration, B/A
Text: It was confirmed by the following experiment using luciferase reporter that the introduction of a test compound into a cell having mutated p53 gene causes restoration of the transcription activity to mutant P53 to enhance P53-dependent transcription.
Plasmid p53RE8luc2 comprising 8 copies of the P53 responsive element in the transcription regulatory region and the firefly luciferase gene downstream therefrom as a reporter gene was constructed according to the following procedure. An outline of the construction steps is illustrated in Fig. 4.
The test compounds were introduced into cells using the liposome reagent for DNA transfection DOSPER™ (Boehringer Mannheim GmbH). […]
After the culturing for 24 hours, the above cells were scraped off using a scraper and collected by centrifugation. […] The luciferase activity was determined by the use of Luminometer LB953 (Beltold), as the amount of luminescence measured for 10 seconds after automatic addition of 300 µl of a substrate solution [25 mM glycylglycine (pH 7.8), 15 mM MgSO4, 5 mM ATP and 0.33 mM luciferin]. The protein concentration was determined by using BIO-RAD Protein Assay Kit (BIO-RAD), and the obtained value was used for normalization of the luciferase activity. […]

| SMILES | Rate of Activation (%) |
| --- | --- |
| CC(C)C[C@@H]1NC(=O)[C@H](CCCCN)NC(=O)[C@H](CCCCN)NC(=O)[C@H](Cc2c[nH]cn2)NC(=O)[C@H](CCCNC(=N)N)NC(=O)[C@H](CO)NC(=O)[C@H]([C@@H](C)O)NC(=O)[C@H](CO)NC(=O)[C@H](CCC(N)=O)NC(=O)CNC(=O)[C@H](CCCCN)NC(=O)[C@H](CCCCN)NC(=O)[C@H](CO)NC(=O)[C@H](CCCCN)NC(=O)[C@H](CC(C)C)NC(=O)[C@@H](N)CSSC[C@@H](C(=O)NCCCCCCCCCCCC(N)=O)NC1=O [Compound 8, H-cyclo-(Cys-Leu-Lys-Ser-Lys-Lys-Gly-Gln-Ser-Thr-Ser-Arg-His-Lys-Lys-Leu-Cys-Add)-NH2] (H-CLKSKKGQSTSRHKKLC[12Ado]-NH2; disulfide 1-17) | 3.9 |
| CCCCNC(=O)CNC(=O)[C@@H]1CSSC[C@H](N)C(=O)N[C@@H](CC(C)C)C(=O)N[C@@H](CCCCN)C(=O)N[C@@H](CO)C(=O)N[C@@H](CCCCN)C(=O)N[C@@H](CCCCN)C(=O)NCC(=O)N[C@@H](CCC(N)=O)C(=O)N[C@@H](CO)C(=O)N[C@@H]([C@@H](C)O)C(=O)N[C@@H](CO)C(=O)N[C@@H](CCCNC(=N)N)C(=O)N[C@@H](Cc2c[nH]cn2)C(=O)N[C@@H](CCCCN)C(=O)N[C@@H](CCCCN)C(=O)N[C@@H](CC(C)C)C(=O)N1 [Compound 23, H-cyclo(Cys-Leu-Lys-Ser-Lys-Lys-Gly-Gln-Ser-Thr-Ser-Arg-His-Lys-Lys-Leu-Cys)-Gly-NH-(CH2)3-CH3] (H-CLKSKKGQSTSRHKKLCG-NHBu; disulfide 1-17) | 5.0 |
